These are yes or no findings as the source states them, for the method shown. Binding seen in cells or lysates may run through a third protein. Some results given as binding are weak or reduced against the parent protein; the word gives no strength.

Chains of the proteins cited; added tags and fusions are not shown.
UniProt P04792: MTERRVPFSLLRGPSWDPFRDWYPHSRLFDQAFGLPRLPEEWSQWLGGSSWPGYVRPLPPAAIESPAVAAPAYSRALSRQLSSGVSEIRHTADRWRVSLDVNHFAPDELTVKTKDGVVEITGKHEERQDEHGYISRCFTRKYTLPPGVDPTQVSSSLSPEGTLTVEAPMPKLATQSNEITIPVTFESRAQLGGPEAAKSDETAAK

For assay [1], the target named is T1, Menin (human (endogenous in LNCaP, PNT1A, PC-3)) (UniProt O00255).
T1 sequence: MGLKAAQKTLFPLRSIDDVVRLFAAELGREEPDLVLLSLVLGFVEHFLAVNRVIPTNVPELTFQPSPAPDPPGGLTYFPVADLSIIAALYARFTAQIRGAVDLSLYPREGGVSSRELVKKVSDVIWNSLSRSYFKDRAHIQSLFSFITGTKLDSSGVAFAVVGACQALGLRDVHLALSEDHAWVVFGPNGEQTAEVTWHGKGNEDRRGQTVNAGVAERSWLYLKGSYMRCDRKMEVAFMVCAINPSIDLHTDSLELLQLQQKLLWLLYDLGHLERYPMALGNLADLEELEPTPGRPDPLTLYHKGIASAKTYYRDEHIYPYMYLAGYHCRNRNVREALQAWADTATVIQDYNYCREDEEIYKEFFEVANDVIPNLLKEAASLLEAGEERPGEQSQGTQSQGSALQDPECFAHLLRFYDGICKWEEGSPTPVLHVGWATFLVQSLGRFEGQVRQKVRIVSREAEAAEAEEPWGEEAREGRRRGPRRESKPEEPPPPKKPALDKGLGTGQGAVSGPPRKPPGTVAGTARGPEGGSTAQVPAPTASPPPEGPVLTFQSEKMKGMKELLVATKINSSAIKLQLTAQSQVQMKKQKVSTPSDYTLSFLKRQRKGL
As to the kind of experiment: co-IP; LNCaP-Mock and LNCaP-HSP27 cell lysates; Menin immunoprecipitated with mouse anti-Menin, mouse IgG as control; blotted with anti-Menin or anti-HSP27.

For assay [2], the target named is T1, Menin (human (endogenous in LNCaP, PNT1A, PC-3)). Nature of the assay: co-IP; PNT1A, LNCaP and PC3 cell lysates; Menin immunoprecipitated with anti-Menin, IgG as control; blotted with anti-Menin, anti-SNW1 or anti-ERH.

“heat shock protein 27 (from UniProt P04792 1-205)”: in assay [1], the binding result is on record as “binds”.

B1: SNW Domain Containing 1 (protein, UniProt Q13573 1-536)
chain: MALTSFLPAPTQLSQDQLEAEEKARSQRSRQTSLVSSRREPPPYGYRKGWIPRLLEDFGDGGAFPEIHVAQYPLDMGRKKKMSNALAIQVDSEGKIKYDAIARQGQSKDKVIYSKYTDLVPKEVMNADDPDLQRPDEEAIKEITEKTRVALEKSVSQKVAAAMPVRAADKLAPAQYIRYTPSQQGVAFNSGAKQRVIRMVEMQKDPMEPPRFKINKKIPRGPPSPPAPVMHSPSRKMTVKEQQEWKIPPCISNWKNAKGYTIPLDKRLAADGRGLQTVHINENFAKLAEALYIADRKAREAVEMRAQVERKMAQKEKEKHEEKLREMAQKARERRAGIKTHVEKEDGEARERDEIRHDRRKERQHDRNLSRAAPDKRSKLQRNENRDISEVIALGVPNPRTSNEVQYDQRLFNQSKGMDSGFAGGEDEIYNVYDQAWRGGKDMAQSIYRPSKNLDKDMYGDDLEARIKTNRFVPDKEFSGSDRRQRGREGPVQFEEDPFGLDKFLEEAKQHGGSKRPSDSSRPKEHEHEGKKRRKE
B1: the binding result in assay [2] is “binds”.

For the origin of these results see article PMC8724010.
